Data: patent US20180369186A1, “METHOD FOR MODULATING AUTOPHAGY AND APPLICATIONS THEREOF” (JAWAHARLAL NEHRU CENTRE FOR ADVANCED SCIENTIFIC RESEARCH, priority 2015, published 2018)
At least one compound was matched to its structure with a doubt left.

What was measured:
α-synuclein toxicity = assay: S. cerevisiae α-synuclein toxicity model, growth assay; type: cell-based; conditions: atg1Δ α-syn cells; 50 μM
Experimental: To screen small molecule library LOPAC1280 in S. cerevisiae SNCA toxicity model, working plates containing 50 μM drugs in 1.5% DMSO (190 compounds/plate) are prepared in a 384 well format. WT SNCA-GFP with or without small molecules and untreated WT GFP are grown under optimized conditions (80 μl, 30° C. and 420 rpm) for 36 h in a plate reader (Varioskan Flash, Thermo Scientific) in duplicates with automatic absorbance (A600) recording every 20 min. Growth curves of untreated WT GFP and WT SNCA-GFP strains are plotted and mid to late exponential phase time point of untreated WT GFP strain is chosen as reference for data analysis. Its corresponding time point of untreated and drug treated WT SNCA-GFP strains are plotted separately in a box plot. […]
Growth assays: In a 384 well plate, appropriate yeast strains are seeded (A600˜0.07) with and without drugs and incubated (80 μl, 30° C. and 420 rpm) in a multiplate reader (Varioskan Flash, Thermo Scientific) for 48 h with automatic absorbance (A600) recording every 20 min. Growth curves are plotted and analyzed using GraphPad Prism. […]
Appropriate yeast strains are seeded (A600 ˜0.07) with or without drugs in a 384-well plate and incubated (420 rpm, 30° C. and 80 μl) in a multiplate reader (Varioskan Flash, Thermo Scientific) for 48 h that records absorbance (A600) automatically for every 20 min. […]

GFP-Atg8 = GFP-Atg8 processing assay (general autophagy); type: cell-based, Saccharomyces cerevisiae; conditions: 50 μM
Experimental: Saccharomyces cerevisiae strain containing the GFP-Atg8 (pRS 316 vector backbone) plasmid is grown in synthetic complete medium lacking uracil (SC-URA) under appropriate conditions (30° C. 250 rpm). From this, a secondary culture is inoculated at A600 nm=0.2 and grown as above until A600 nm reached ˜0.65. The cultures are transferred to SD-N (nitrogen starvation) medium at A600 nm=3, separately with and without the compounds, and samples are collected at different time intervals. Sample preparation is done by the TCA precipitation method and immunoblotting is performed using standard methods.
Yeast strains (A600=3) are resuspended in trichloroacetic acid (12.5%) and stored at −80° C. for at least half an hour. Samples are thawed on ice, centrifuged (16000×g, 10 min) and pellet is washed twice with ice-cold acetone (80%). Pellets are air dried, resuspended in lysis (1% SDS and 0.1 N NaOH) solution and Laemmii buffer and boiled for 10 min.

α-synuclein-EGFP = α-synuclein-EGFP degradation assay in yeast; type: cell-based, S. cerevisiae; conditions: 50 μM
Experimental: Subsequent degradation of α-synuclein-EGFP levels are analyzed using immunoblotting (FIG. 9A).
Yeast cultures after respective treatments are washed, mounted on agarose (2%) pad and imaged. Images are acquired using DeltaVision Elite widefield microscope (API, GE) with following filters: DAPI (390/18 and 435/48), FITC (490/20 and 529/38), TRITC (542/27 and 594/45) and Cy5 (632/22 and 676/34). Images are processed using DV SoftWoRX software. Autophagosome (yellow) and autolysosome (red) are counted using Cell Counter plug-in in imager software (NIH) and graphically represented as fold difference versus untreated (FIGS. 4A, B, C and D).
After inducing α-synuclein-EGFP aggregates in the corresponding yeast strains driven by galactose promoter, the protein expression is turned off by adding dextrose in the medium. Then, α-synuclein-EGFP aggregates degradation by XCT 790 are assessed by collecting cells treated with and without XCT 790 (50 μM) for 0 and 24 h. Subsequently, the protein levels are analyzed using immunoblotting.
The appropriate yeast strains (A600=3) are mixed in trichloroacetic acid (12.5%) and then stored at −80° C. Then, the samples are thawed on ice, centrifuged (16000×g, 15 min) and the pellets are washed twice with ice-cold acetone (80%). Pellets are air dried, resuspended in lysis solution (0.1 N NaOH and 1% SDS) and Laemmli buffer and boiled for 15 min. […]

COc1cc(C=C(C#N)C(=O)Nc2nnc(C(F)(F)F)s2)ccc1OCc1ccc(C(F)(F)F)cc1C(F)(F)F [XCT 790, 3-[4-(2,4-Bis-trifluoromethylbenzyloxy)-3-methoxyphenyl]-2-cyano-N-(5-trifluoromethyl-1,3,4-thiadiazol-2-yl)acrylamide]
rescue of growth lag in core autophagy mutant cells (α-synuclein toxicity): failed to rescue the growth lag
autophagy induction / flux, growth condition (GFP-Atg8; growth condition, 6 h): dramatically induces autophagic flux
autophagic flux, starvation condition (GFP-Atg8; starvation 2, 4 and 6 h): significantly induces autophagic flux in a time-dependent manner
α-synuclein-EGFP clearance in autophagy mutant atg1Δ (α-synuclein-EGFP): not in autophagy mutant
